This is one part of the list. Residues, ends and D or L forms follow the SMILES beside them. *: point of attachment. Cbz = O=C(OCc1ccccc1)*
Experiments:
Assay in all cases: log2 fold change, soluble protein after heating vs DMSO (PISA); higher = thermal stabilisation; K562 cells, 10 uM, 30 min; active = over 0.2 and 3.5 SD of the protein, either way, in both replicates (recomputed)
[1] = compound: C#Cc1cccc(Nc2ncnc3cc(OCCOC)c(OCCOC)cc23)c1 [erlotinib]
Summary of the method: (§1)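 K562 cells at 2×10^6 cells/mL were given 10 μM compound for 30 min. Aliquots then went through 3 min of heating across 48°C-58°C, were pooled, and were extracted in PBS with 0.5% NP-40 at 4°C, and the supernatant after 21,000xg for 90 min was quantified by TMTpro 16plex LC-MS/MS with channel sums equalised. Thermal stability relative to control samples, from duplicates, is given as log2 fold change.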

Sequences of proteins named here, by UniProt entry; tags and fusion partners are left off. A change or cut given only in a name is not applied to a line headed by its entry.
UniProt Q13564: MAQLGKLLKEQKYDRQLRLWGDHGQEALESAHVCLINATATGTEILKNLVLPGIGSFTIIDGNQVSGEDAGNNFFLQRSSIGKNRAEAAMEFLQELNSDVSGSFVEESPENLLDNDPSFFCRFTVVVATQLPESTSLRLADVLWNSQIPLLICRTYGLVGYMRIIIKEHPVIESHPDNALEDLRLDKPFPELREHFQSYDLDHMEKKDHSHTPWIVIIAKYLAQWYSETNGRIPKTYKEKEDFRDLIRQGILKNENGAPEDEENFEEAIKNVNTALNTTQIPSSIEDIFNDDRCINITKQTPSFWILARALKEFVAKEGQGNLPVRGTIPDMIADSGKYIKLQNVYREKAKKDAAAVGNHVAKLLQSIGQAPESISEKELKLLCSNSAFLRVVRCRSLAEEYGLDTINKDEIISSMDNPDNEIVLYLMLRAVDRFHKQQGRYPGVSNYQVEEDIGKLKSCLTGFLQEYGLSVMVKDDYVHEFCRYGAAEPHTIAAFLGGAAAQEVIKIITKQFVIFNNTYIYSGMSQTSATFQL
UniProt Q8NHV4, whole entry, looked up: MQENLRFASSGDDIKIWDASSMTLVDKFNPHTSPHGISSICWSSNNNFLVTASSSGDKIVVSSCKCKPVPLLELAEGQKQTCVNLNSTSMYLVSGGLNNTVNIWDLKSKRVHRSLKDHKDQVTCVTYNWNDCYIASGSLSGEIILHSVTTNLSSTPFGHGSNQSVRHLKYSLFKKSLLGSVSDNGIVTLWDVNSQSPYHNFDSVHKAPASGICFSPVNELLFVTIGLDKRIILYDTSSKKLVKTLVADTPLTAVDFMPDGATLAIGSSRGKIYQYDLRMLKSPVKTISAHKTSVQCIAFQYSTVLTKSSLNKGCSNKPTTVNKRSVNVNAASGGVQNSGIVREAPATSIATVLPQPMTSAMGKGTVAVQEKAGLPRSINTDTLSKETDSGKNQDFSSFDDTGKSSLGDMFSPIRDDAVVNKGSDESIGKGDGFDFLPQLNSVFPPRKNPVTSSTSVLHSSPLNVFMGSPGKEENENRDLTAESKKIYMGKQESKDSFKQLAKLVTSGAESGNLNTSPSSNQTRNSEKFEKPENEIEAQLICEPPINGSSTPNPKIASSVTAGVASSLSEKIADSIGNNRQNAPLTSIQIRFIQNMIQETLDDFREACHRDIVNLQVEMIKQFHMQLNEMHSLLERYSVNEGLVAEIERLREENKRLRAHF
UniProt Q9UHB4: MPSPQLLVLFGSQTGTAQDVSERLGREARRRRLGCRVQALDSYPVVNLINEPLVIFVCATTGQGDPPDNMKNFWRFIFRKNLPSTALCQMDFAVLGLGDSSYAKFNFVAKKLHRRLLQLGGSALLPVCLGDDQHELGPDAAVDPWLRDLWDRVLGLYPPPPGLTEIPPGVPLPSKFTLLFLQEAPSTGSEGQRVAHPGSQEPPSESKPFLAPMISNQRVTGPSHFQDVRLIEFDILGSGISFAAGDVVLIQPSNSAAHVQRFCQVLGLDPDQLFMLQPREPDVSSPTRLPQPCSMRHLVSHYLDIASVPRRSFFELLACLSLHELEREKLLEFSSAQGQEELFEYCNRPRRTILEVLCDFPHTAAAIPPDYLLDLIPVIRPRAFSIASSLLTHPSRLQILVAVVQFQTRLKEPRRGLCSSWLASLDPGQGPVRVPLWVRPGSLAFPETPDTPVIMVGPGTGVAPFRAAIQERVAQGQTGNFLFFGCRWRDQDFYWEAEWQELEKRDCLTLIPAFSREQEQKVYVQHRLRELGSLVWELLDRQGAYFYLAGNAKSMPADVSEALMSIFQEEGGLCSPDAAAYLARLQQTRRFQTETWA
UniProt P62166, whole entry, looked up: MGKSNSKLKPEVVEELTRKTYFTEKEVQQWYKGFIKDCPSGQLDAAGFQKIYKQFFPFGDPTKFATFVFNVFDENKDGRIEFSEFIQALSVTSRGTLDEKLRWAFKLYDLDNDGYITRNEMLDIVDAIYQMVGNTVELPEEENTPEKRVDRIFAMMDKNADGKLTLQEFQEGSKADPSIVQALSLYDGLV
UniProt Q147X3: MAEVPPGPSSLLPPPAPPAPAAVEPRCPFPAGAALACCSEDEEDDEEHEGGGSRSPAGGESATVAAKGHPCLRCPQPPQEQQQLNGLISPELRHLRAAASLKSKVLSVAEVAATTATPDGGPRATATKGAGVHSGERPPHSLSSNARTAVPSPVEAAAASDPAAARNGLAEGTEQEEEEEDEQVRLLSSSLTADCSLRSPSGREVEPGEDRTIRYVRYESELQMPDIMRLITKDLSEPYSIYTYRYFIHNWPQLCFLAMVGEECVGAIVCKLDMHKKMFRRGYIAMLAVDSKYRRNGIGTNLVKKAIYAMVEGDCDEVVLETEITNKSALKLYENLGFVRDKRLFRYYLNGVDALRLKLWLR
UniProt Q6P582, whole entry, looked up: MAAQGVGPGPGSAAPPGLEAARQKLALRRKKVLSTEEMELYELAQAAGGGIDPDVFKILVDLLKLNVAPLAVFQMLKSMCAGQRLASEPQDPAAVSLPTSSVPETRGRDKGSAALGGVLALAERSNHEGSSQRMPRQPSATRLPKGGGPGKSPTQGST
UniProt Q9NVZ3: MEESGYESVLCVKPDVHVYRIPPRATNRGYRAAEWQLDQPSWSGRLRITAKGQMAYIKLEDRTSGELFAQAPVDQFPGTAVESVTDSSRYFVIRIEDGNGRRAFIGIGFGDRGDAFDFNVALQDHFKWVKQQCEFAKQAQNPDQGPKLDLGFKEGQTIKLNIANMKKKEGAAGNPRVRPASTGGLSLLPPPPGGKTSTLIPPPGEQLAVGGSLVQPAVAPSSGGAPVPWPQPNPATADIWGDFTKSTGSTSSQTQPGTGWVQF
UniProt Q8NCW5: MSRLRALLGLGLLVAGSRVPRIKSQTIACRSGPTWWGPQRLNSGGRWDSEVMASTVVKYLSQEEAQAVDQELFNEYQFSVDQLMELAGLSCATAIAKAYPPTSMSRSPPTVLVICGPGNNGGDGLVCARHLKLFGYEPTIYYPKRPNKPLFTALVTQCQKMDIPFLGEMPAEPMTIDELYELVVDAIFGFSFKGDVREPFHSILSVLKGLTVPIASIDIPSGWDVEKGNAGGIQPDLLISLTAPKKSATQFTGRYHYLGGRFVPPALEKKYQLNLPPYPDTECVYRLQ
UniProt Q99733: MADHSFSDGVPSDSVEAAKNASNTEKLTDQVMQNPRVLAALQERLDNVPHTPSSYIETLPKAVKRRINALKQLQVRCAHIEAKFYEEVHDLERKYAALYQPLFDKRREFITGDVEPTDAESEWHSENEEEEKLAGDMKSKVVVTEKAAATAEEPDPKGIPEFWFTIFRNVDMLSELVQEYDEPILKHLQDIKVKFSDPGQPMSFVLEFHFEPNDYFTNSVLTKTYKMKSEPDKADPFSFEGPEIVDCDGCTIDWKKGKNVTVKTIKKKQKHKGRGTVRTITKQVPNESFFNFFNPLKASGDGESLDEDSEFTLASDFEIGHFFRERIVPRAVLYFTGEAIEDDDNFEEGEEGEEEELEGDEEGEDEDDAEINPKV
UniProt Q969V3: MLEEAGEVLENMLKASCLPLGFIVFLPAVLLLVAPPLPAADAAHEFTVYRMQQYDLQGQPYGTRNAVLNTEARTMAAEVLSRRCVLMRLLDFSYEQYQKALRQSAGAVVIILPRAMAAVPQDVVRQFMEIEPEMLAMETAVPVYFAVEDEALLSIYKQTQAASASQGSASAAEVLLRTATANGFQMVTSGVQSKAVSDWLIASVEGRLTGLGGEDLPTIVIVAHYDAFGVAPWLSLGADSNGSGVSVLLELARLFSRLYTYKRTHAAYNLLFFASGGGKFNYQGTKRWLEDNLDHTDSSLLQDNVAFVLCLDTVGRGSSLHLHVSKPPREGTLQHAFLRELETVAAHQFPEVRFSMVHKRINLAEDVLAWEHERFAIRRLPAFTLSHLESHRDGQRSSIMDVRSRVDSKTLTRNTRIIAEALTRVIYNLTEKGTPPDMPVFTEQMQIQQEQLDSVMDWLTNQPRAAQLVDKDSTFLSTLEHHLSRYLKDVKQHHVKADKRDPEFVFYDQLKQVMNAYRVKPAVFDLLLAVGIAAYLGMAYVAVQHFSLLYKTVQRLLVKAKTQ
UniProt O75113: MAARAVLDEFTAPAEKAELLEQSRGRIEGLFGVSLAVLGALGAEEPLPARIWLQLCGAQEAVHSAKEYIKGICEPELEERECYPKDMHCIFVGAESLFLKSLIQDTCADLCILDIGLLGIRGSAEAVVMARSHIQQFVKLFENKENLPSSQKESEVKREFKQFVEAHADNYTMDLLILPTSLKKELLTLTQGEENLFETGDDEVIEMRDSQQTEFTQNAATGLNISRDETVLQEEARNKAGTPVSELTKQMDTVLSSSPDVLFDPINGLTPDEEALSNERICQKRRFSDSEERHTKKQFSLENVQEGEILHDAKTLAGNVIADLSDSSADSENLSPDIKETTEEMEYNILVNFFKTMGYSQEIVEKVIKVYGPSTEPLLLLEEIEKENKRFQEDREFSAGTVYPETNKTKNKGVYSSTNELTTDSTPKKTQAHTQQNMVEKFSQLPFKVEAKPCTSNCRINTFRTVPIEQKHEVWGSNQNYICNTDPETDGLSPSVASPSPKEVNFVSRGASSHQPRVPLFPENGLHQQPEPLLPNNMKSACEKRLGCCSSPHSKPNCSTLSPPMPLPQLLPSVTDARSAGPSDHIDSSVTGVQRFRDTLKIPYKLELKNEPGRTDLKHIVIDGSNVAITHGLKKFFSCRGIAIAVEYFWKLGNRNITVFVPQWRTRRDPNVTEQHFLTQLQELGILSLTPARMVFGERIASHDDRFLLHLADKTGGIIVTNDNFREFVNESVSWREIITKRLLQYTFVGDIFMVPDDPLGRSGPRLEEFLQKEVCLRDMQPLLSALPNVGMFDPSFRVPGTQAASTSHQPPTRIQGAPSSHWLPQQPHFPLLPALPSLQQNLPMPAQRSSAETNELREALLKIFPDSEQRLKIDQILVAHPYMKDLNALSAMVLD
UniProt Q9P032: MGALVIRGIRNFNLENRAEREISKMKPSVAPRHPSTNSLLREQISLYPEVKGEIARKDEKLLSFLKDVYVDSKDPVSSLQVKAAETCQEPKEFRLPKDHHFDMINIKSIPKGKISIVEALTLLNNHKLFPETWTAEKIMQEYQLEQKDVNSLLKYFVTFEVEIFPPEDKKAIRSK
UniProt Q9P0J0, whole entry, looked up: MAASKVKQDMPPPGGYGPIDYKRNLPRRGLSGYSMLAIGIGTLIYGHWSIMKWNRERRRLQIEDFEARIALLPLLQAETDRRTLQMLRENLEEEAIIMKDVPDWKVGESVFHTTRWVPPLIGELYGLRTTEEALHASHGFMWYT
UniProt Q9BTX1: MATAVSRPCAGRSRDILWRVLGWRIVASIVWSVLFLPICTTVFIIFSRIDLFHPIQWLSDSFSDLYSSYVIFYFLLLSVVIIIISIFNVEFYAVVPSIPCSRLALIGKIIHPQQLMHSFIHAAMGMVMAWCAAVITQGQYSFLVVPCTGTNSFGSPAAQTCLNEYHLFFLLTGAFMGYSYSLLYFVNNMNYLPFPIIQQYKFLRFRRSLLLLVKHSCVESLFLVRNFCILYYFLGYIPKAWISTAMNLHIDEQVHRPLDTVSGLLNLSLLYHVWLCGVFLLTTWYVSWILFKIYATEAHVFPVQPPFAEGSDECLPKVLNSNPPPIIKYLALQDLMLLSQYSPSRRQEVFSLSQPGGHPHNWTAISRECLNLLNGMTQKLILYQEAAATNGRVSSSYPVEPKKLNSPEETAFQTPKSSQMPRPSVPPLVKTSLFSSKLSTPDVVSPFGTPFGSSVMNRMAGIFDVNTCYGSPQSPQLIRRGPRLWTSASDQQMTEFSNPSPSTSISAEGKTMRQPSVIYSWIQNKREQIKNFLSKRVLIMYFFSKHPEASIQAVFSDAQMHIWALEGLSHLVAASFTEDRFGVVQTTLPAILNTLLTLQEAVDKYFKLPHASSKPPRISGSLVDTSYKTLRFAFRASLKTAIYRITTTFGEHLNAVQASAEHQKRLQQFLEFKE
UniProt Q9UN36: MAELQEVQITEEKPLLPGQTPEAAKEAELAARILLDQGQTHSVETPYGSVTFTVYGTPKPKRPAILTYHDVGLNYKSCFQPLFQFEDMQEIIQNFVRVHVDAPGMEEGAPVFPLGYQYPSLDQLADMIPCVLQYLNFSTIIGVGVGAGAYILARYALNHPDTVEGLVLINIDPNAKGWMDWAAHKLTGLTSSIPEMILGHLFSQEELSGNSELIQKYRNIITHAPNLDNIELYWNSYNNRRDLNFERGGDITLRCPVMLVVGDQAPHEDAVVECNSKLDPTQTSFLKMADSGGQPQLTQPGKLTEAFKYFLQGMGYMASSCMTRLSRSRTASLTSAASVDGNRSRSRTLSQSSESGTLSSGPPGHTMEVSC

[2] = compound: C/C(=N\NC(=O)C1=CC(=CC=C1)S(=O)(=O)N2CCOCC2)/C3=C(C=CC(=C3)Cl)O
Summary of the method: as §1

[3] = compound: C1=CC(=C(C=C1Cl)C2=NC3=NC=CN=C3C(=N2)NC4=CC=NC=C4)F
Summary of the method: as §1

[4] = compound: C1=CC(=CC=C1C2=NC3=C(N2)C=C(C=C3)C(=O)N)OC4=CC=C(C=C4)Cl
Summary of the method: as §1

[5] = compound: C1=CC2=C(C=CC(=C2)/C=C\3/C(=O)NC(=NCC4=CC=CS4)S3)N=C1
Summary of the method: as §1

[6] = compound: C1=CC2=NC=CN=C2C=C1/C=C/3\C(=O)NC(=O)S3
Summary of the method: as §1

[7] = compound: C1=CC=C(C=C1)C2=NC(=C(N2)C3=CC=NC=C3)C4=CC(=C(C=C4)Cl)O
Summary of the method: as §1

[8] = compound: C1=CC=C2C(=C1)C3=NNC4=CC=CC(=C43)C2=O
Summary of the method: as §1

[9] = compound: C1CCN(C1)C(=O)NC2=CC=CC(=C2)NC3=NC=C(C(=N3)NCCC4=CN=CN4)Br
Summary of the method: as §1

[10] = compound: C1CN(CCC1(CC2=CC=C(C=C2)Cl)N)C3=NC=NC4=C3C=CN4
Summary of the method: as §1

[11] = compound: C1COCCN1CCN2C3=CC=CC=C3N=C2NC(=O)C4=CC(=CC=C4)[N+](=O)[O-] [IRAK-1-4 Inhibitor I]
Summary of the method: as §1

[12] = compound: C=CC(=O)N1CCC[C@@H](n2nc(-c3ccc(Oc4ccccc4)cc3)c3c(N)ncnc32)C1 [ibrutinib]
Summary of the method: as §1

[13] = compound: CC(=O)c1cnc2ccc(-c3cc(Cl)c(O)c(Cl)c3)nc2c1N[C@H]1CC[C@H](CN(C)C)CC1
Summary of the method: as §1

[14] = compound: CC(C)(C)Cn1c(N)nc2ccc(-c3[nH]c(C(C)(C)C)nc3-c3ccc(F)cc3)nc21 [ralimetinib]
Summary of the method: as §1

[15] = compound: CC(C)(O)CC(=O)NCCn1ccc2ncnc(Nc3ccc(Oc4cccc(C(F)(F)F)c4)c(Cl)c3)c21
Summary of the method: as §1

[16] = compound: CC(C)C1=C2N=C(C=C(N2N=C1)NCC3=CC=CC=C3)NCCCCCCN
Summary of the method: as §1

[17] = compound: CC(C)C[C@@H](C=O)NC(=O)[C@H](CC(C)C)NC(=O)[C@H](CC(C)C)NC(=O)OCc1ccccc1
Summary of the method: as §1

[18] = compound: CC(C)N(C[C@H]1O[C@@H](n2cnc3c(N)ncnc32)[C@H](O)[C@@H]1O)[C@H]1C[C@@H](CCc2nc3cc(C(C)(C)C)ccc3[nH]2)C1 [pinometostat]
Summary of the method: as §1

[19] = compound: CC1=C(C(CC(=O)N1)C2=CC=C(C=C2)C(F)(F)F)C(=O)NC3=C(C=C4C(=C3)C=NN4)F
Summary of the method: as §1

[20] = compound: CC1=C(C2=C(C=C1)C(=O)C3=CC=CC=C3N2CCCN)C
Summary of the method: as §1

Measured: log2 fold change

NAE1 (UniProt Q13564)
inactive: [1] 0.007 | [2] 0.048 | [3] -0.025 | [4] 0.009 | [5] 0.062 | [6] 0.007 | [7] 0.034 | [8] -0.004 | [9] -0.02 | [10] 0.007 | [11] -0.005 | [12] -0.028 | [13] -0.095 | [14] -0.005 | [15] -0.084 | [16] -0.111 | [17] 0.065 | [18] -0.032 | [19] -0.05 | [20] 0.045

NEDD1 isoform 3 (UniProt Q8NHV4)
inactive: [1] 0.002 | [2] 0.014 | [3] 0.005 | [4] -0.001 | [5] 0.028 | [6] 0.025 | [7] 0.028 | [8] -0.032 | [9] -0.03 | [10] -0.007 | [11] 0.007 | [12] -0.059 | [13] 0.003 | [14] 0.018 | [15] 0.002 | [16] 0.026 | [17] 0.009 | [18] -0.013 | [19] -0.017 | [20] 0.026

NDOR1 isoform 2 (UniProt Q9UHB4)
inactive: [1] -0.007 | [2] 0.084 | [3] 0.003 | [4] 0.007 | [5] 0.016 | [6] -0.017 | [7] 0.034 | [8] 0 | [9] 0 | [10] 0.006 | [11] -0.012 | [12] 0.005 | [13] -0.069 | [14] -0.001 | [15] -0.046 | [16] 0.062 | [17] 0.03 | [18] -0.048 | [19] -0.061 | [20] -0.012

NCDN isoform 3 (UniProt Q9UBB6)
inactive: [1] 0.061 | [2] 0.024 | [3] -0.01 | [4] -0.054 | [5] 0.043 | [6] 0.038 | [7] 0.03 | [8] 0.039 | [9] -0.037 | [10] -0.03 | [11] 0.023 | [12] -0.033 | [13] -0.033 | [14] 0.015 | [15] -0.202 | [16] -0.099 | [17] 0 | [18] 0.094 | [19] 0.024 | [20] 0.069

NCS1 (UniProt P62166)
inactive: [1] 0.009 | [2] 0.043 | [3] 0.008 | [4] 0.058 | [5] -0.077 | [6] 0.018 | [7] 0.033 | [8] 0.031 | [9] 0.013 | [10] 0.073 | [11] 0.037 | [12] 0.032 | [13] -0.04 | [14] -0.033 | [15] -0.109 | [16] -0.006 | [17] -0.004 | [18] -0.031 | [19] 0.008 | [20] 0.008

NAA30 (UniProt Q147X3)
inactive: [1] 0.03 | [2] -0.001 | [3] 0.142 | [4] 0.045 | [5] -0.02 | [6] -0.049 | [7] -0.021 | [8] 0.056 | [9] 0.076 | [10] 0.047 | [11] 0.015 | [12] 0.026 | [13] -0.005 | [14] 0.066 | [15] -0.038 | [16] -0.02 | [17] 0.046 | [18] 0.038 | [19] 0.043 | [20] -0.016

2 consecutive entries already listed, for reference:
NDOR1 isoform 2 (UniProt Q9UHB4)
inactive: [1] -0.007 | [2] 0.084 | [3] 0.003 | [4] 0.007 | [5] 0.016 | [6] -0.017 | [7] 0.034 | [8] 0 | [9] 0 | [10] 0.006 | [11] -0.012 | [12] 0.005 | [13] -0.069 | [14] -0.001 | [15] -0.046 | [16] 0.062 | [17] 0.03 | [18] -0.048 | [19] -0.061 | [20] -0.012

NCDN isoform 3 (UniProt Q9UBB6)
inactive: [1] 0.061 | [2] 0.024 | [3] -0.01 | [4] -0.054 | [5] 0.043 | [6] 0.038 | [7] 0.03 | [8] 0.039 | [9] -0.037 | [10] -0.03 | [11] 0.023 | [12] -0.033 | [13] -0.033 | [14] 0.015 | [15] -0.202 | [16] -0.099 | [17] 0 | [18] 0.094 | [19] 0.024 | [20] 0.069

Remaining list, next part:

MZT2A (UniProt Q6P582)
inactive: [1] -0.137 | [2] 0.04 | [3] -0.054 | [4] 0.042 | [5] -0.046 | [6] 0.008 | [7] -0.001 | [8] 0.021 | [9] -0.072 | [10] -0.095 | [11] 0.008 | [12] 0.057 | [13] -0.048 | [14] -0.096 | [15] -0.107 | [16] 0.038 | [17] 0.154 | [18] -0.013 | [19] 0.01 | [20] 0.057

NECAP2 (UniProt Q9NVZ3)
inactive: [1] 0.018 | [2] 0.111 | [3] 0.098 | [4] -0.006 | [5] 0.048 | [6] 0.008 | [7] 0.062 | [8] -0.061 | [9] -0.001 | [10] 0.038 | [11] 0.032 | [12] -0.019 | [13] -0.053 | [14] -0.035 | [15] -0.056 | [16] 0.001 | [17] -0.038 | [18] -0.005 | [19] -0.01 | [20] 0.091

NAXE (UniProt Q8NCW5)
inactive: [1] -0.005 | [2] 0.031 | [3] 0.09 | [4] 0.016 | [5] 0.059 | [6] -0.003 | [7] 0.04 | [8] -0.007 | [9] -0.017 | [10] 0.001 | [11] 0.049 | [12] 0.034 | [13] 0.013 | [14] -0.046 | [15] 0.046 | [16] 0.063 | [17] -0.016 | [18] -0.076 | [19] -0.012 | [20] 0.066

NAP1L4 isoform 2 (UniProt Q99733)
inactive: [1] -0.008 | [2] 0.024 | [3] 0.089 | [4] -0.029 | [5] -0.029 | [6] 0.033 | [7] -0.011 | [8] 0.003 | [9] -0.027 | [10] 0.018 | [11] 0.017 | [12] -0.015 | [13] 0.025 | [14] -0.007 | [15] 0.006 | [16] 0.022 | [17] 0.012 | [18] 0.008 | [19] -0.041 | [20] 0.065

NCLN (UniProt Q969V3)
inactive: [1] -0.005 | [2] -0.029 | [3] 0 | [4] -0.027 | [5] -0.011 | [6] 0.014 | [7] -0.013 | [8] 0.001 | [9] 0.006 | [10] 0.052 | [11] 0.02 | [12] -0.021 | [13] 0.02 | [14] 0.008 | [15] 0.003 | [16] -0.102 | [17] -0.004 | [18] 0.049 | [19] -0.004 | [20] -0.022

N4BP1 (UniProt O75113)
inactive: [1] -0.025 | [2] -0.175 | [3] -0.089 | [4] -0.082 | [5] 0.153 | [6] -0.011 | [7] 0.087 | [8] -0.005 | [9] -0.132 | [10] 0.032 | [11] -0.055 | [12] -0.048 | [13] 0.015 | [14] 0.151 | [15] 0.094 | [16] -0.352 | [17] -0.087 | [18] 0.016 | [19] -0.043 | [20] 0.017

NDUFAF4 (UniProt Q9P032)
inactive: [1] 0.011 | [2] 0.006 | [3] 0.051 | [4] 0.01 | [5] 0.03 | [6] 0.019 | [7] 0.009 | [8] 0.002 | [9] 0.027 | [10] 0.019 | [11] 0.036 | [12] -0.005 | [13] -0.027 | [14] -0.016 | [15] -0.035 | [16] -0.153 | [17] -0.012 | [18] 0 | [19] 0.008 | [20] 0.031

NDUFA13 (UniProt Q9P0J0)
inactive: [1] -0.003 | [2] 0.067 | [3] 0.081 | [4] -0.026 | [5] 0.017 | [6] 0.023 | [7] 0.022 | [8] 0.008 | [9] -0.056 | [10] 0.054 | [11] -0.084 | [12] 0.007 | [13] 0.012 | [14] -0.048 | [15] -0.06 | [16] -0.156 | [17] -0.007 | [18] -0.016 | [19] -0.016 | [20] 0.013

NDC1 (UniProt Q9BTX1)
inactive: [1] -0.02 | [2] 0.075 | [3] 0.056 | [4] 0.03 | [5] 0.021 | [6] 0.001 | [7] 0.014 | [8] -0.107 | [9] -0.029 | [10] 0.007 | [11] 0.02 | [12] -0.018 | [13] -0.026 | [14] -0.041 | [15] -0.009 | [16] -0.112 | [17] -0.007 | [18] 0.012 | [19] 0.01 | [20] -0.015

NDRG2 (UniProt Q9UN36)
inactive: [1] -0.04 | [2] 0.058 | [3] 0.08 | [4] -0.005 | [5] -0.013 | [6] 0.001 | [7] 0.011 | [8] -0.012 | [9] -0.013 | [10] -0.004 | [11] 0.012 | [12] 0.008 | [13] 0.037 | [14] -0.022 | [15] -0.068 | [16] 0.042 | [17] -0.008 | [18] -0.044 | [19] -0.033 | [20] -0.072
